Measured values as given in the supplement of paper PMC10331698.
± gives the standard deviation of the averaged measurements. Most values lie at the level of the controls, where differences are scatter.

How the values were obtained:
Test in all cases: level (log10 ratio to DMSO vehicle control); higher = higher biomarker level / cell amount than vehicle control
[1] = compound: O=C(O)C(F)(F)C(F)(F)C(F)(F)F [Perfluorobutanoic acid]; conditions: 2200 nM; in DMSO
Method: (§1)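 BioMAP Diversity Plus panel of 12 human primary cell co-culture systems (3C, 4H, LPS, SAg, BT, BF4T, BE3C, CASM3C, HDF3CGF, KF3CT, MyoF, Mphg). Compounds were added 1 h before stimulation and left for 24 h (MyoF 48 h; BT 72 h for soluble read-outs or 6 d for IgG). Biomarkers were read by ELISA, cytotoxicity by SRB, PBMC viability and proliferation by Alamar Blue. Each well value was divided by the mean of 8 DMSO control wells on the same plate and log10 transformed; duplicate blinded samples were tested at 4 concentrations.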

[2] = compound: FC(F)C(F)(F)COCC1CO1 [((2,2,3,3-Tetrafluoropropoxy)methyl)oxirane]; conditions: 2200 nM; in DMSO
Method: as §1

[3] = compound: O=S(=O)(Cl)C(F)(F)C(F)(F)C(F)(F)C(F)(F)C(F)(F)C(F)(F)C(F)(F)C(F)(F)F [Perfluoro-1-octanesulfonyl chloride]; conditions: 2200 nM; in DMSO
Method: as §1

[4] = compound: O=C(O)C(F)(F)OC(F)(F)C(F)(F)OC(F)(F)C(F)(F)C(F)(F)C(F)(F)F [Perfluoro-3,6-dioxadecanoic acid]; conditions: 2200 nM; in DMSO
Method: as §1

[5] = compound: FC(F)(F)C(F)(F)C(F)(F)C(F)(F)C(F)(F)C(F)(F)C(F)(F)CCI [1-Iodo-1H,1H,2H,2H-perfluorononane]; conditions: in DMSO
Method: as §1

[6] = compound: O=C(O)C(F)(F)C(F)(F)C(F)(F)C(F)(F)C(F)(F)C(F)(F)C(F)(F)C(F)(F)C(F)(F)C(F)(F)F [Perfluoroundecanoic acid]; conditions: in DMSO
Method: as §1

[7] = compound: O=C(O)C(F)(F)OC(F)(F)C(F)(F)OC(F)(F)C(=O)O [Perfluoro-3,6-dioxaoctane-1,8-dioic acid]; conditions: 2200 nM; in DMSO
Method: as §1

[8] = compound: NC(=O)C(F)(F)C(F)(F)C(F)(F)C(F)(F)C(F)(F)C(F)(F)C(F)(F)F [Perfluorooctanamide]; conditions: 2200 nM; in DMSO
Method: as §1

[9] = compound: O=C(O)C=CC(F)(C(F)(F)F)C(F)(F)F [3-(Perfluoroisopropyl)-2-propenoic acid]; conditions: in DMSO
Method: as §1

[10] = compound: O=P(O)(O)CCC(F)(F)C(F)(F)C(F)(F)C(F)(F)C(F)(F)C(F)(F)C(F)(F)C(F)(F)F [((Perfluorooctyl)ethyl)phosphonic acid]; conditions: 2200 nM; in DMSO
Method: as §1

[11] = compound: FC(F)(F)C(F)(F)C(F)(F)C(F)(F)C(F)(F)C(F)(F)C(F)(F)I [1-Iodopentadecafluoroheptane]; conditions: in DMSO
Method: as §1

[12] = compound: C=C(C)C(=O)OCC(F)(F)C(F)(F)C(F)(F)F [2,2,3,3,4,4,4-Heptafluorobutyl methacrylate]; conditions: 2200 nM; in DMSO
Method: as §1

[13] = compound: O=C(O)C(F)(F)C(F)(F)C(F)(F)C(F)(F)C(F)(F)C(F)(F)C(F)(F)C(F)F [9-H-Perfluorononanoic acid]; conditions: 2200 nM; in DMSO
Method: as §1

[14] = compound: O=C(O)C(F)(F)C(F)(F)OC(F)(F)F [Perfluoro-3-methoxypropanoic acid]; conditions: 2200 nM; in DMSO
Method: as §1

[15] = compound: OCC(F)(F)C(F)(F)C(F)(F)C(F)(F)C(F)(F)C(F)(F)C(F)(F)C(F)(F)C(F)(F)C(F)(F)C(F)(F)F [11:1 Fluorotelomer alcohol]; conditions: in DMSO
Method: as §1

[16] = compound: OCCC(F)(F)C(F)(F)C(F)(F)C(F)(F)C(F)(F)C(F)(F)C(F)(F)C(F)(F)F [8:2 Fluorotelomer alcohol]; conditions: 2200 nM; in DMSO
Method: as §1

[17] = compound: C=CC(=O)OCC(F)(F)C(F)(F)C(F)(F)C(F)(F)COC(=O)C=C [1H,1H,6H,6H-Perfluorohexane-1,6-diol diacrylate]; conditions: 2200 nM; in DMSO
Method: as §1

[18] = compound: O=C(O)C(F)(F)C(F)(F)F [Perfluoropropanoic acid]; conditions: 2200 nM; in DMSO
Method: as §1

| Test System | level (log10) [1] | level (log10) [2] | level (log10) [3] | level (log10) [4] | level (log10) ([5]; 740 nM) | level (log10) ([5]; 2200 nM) | level (log10) ([5]; 6700 nM) | level (log10) ([5]; 20000 nM) | level (log10) ([6]; 740 nM) | level (log10) ([6]; 2200 nM) | level (log10) [7] | level (log10) [8] | level (log10) ([9]; 2200 nM) | level (log10) ([9]; 6700 nM) | level (log10) ([9]; 20000 nM) | level (log10) ([9]; 60000 nM) | level (log10) [10] | level (log10) ([11]; 740 nM) | level (log10) ([11]; 2200 nM) | level (log10) ([11]; 6700 nM) | level (log10) ([11]; 20000 nM) | level (log10) [12] | level (log10) [13] | level (log10) [14] | level (log10) ([15]; 370 nM) | level (log10) ([15]; 1100 nM) | level (log10) ([15]; 3300 nM) | level (log10) ([15]; 10000 nM) | level (log10) [16] | level (log10) [17] | level (log10) [18] |
| --- | --- | --- | --- | --- | --- | --- | --- | --- | --- | --- | --- | --- | --- | --- | --- | --- | --- | --- | --- | --- | --- | --- | --- | --- | --- | --- | --- | --- | --- | --- | --- |
| lMphg:CXCL8/IL-8 | 0.017 ± 0.069 | 0.0395 ± 0.0092 | 0.003 ± 0.028 | 0.0255 ± 0.0092 | 0.0145 ± 0.0021 | 0 ± 0.03 | 0.007 ± 0.013 | 0.0695 ± 0.0078 | 0.021 ± 0.021 | 0.0225 ± 0.026 | 0.001 ± 0.011 | 0.014 ± 0.0099 | 0.0005 ± 0.04 | -0.0225 ± 0.0021 | -0.006 ± 0.0028 | 0.0415 ± 0.054 | 0.0025 ± 0.043 | -0.013 ± 0.0099 | 0.021 ± 0.021 | -0.018 ± 0.0071 | 0.0165 ± 0.019 | 0.0435 ± 0.037 | 0.0355 ± 0.028 | 0.004 ± 0.027 | 0.042 ± 0.0085 | 0.111 ± 0.042 | 0.127 ± 0.033 | 0.0445 ± 0.0064 | 0.0425 ± 0.056 | -0.0085 ± 0.021 | 0.022 ± 0.0028 |
| LPS:CD40 | -0.006 ± 0.017 | -0.0095 ± 0.025 | -0.014 ± 0.076 | -0.0335 ± 0.032 | 0.033 ± 0.048 | -0.008 ± 0.042 | -0.0105 ± 0.019 | 0.034 ± 0.025 | -0.0015 ± 0.064 | -0.0205 ± 0.047 | 0.001 ± 0.011 | -0.0185 ± 0.042 | -0.0295 ± 0.013 | -0.008 ± 0.0085 | 0.008 ± 0.048 | -0.017 ± 0.079 | -0.0685 ± 0.07 | 0.0415 ± 0.066 | 0.0125 ± 0.067 | 0.0645 ± 0.11 | -0.006 ± 0.15 | -0.0465 ± 0.097 | -0.0275 ± 0.021 | 0.0185 ± 0.0035 | 0.0635 ± 0.032 | 0.0305 ± 0.028 | 0.0205 ± 0.0035 | -0.0275 ± 0.00071 | -0.0395 ± 0.0035 | -0.038 ± 0.0071 | 0.003 ± 0.027 |
| LPS:M-CSF | 0.0095 ± 0.013 | 0.0205 ± 0.012 | -0.0625 ± 0.077 | 0.009 ± 0.045 | 0.028 ± 0.018 | 0.003 ± 0.016 | -0.003 ± 0.028 | -0.0015 ± 0.093 | 0.014 ± 0.014 | 0.033 ± 0.035 | 0.011 ± 0.0042 | 0.0065 ± 0.049 | -0.003 ± 0.021 | -0.011 ± 0.041 | -0.0065 ± 0.0092 | 0.0035 ± 0.0035 | -0.025 ± 0.0042 | 0.013 ± 0.034 | 0.028 ± 0.061 | 0.023 ± 0.047 | 0.0155 ± 0.086 | 0.0085 ± 0.037 | -0.0095 ± 0.061 | -0.004 ± 0.035 | 0.01 ± 0.018 | -0.009 ± 0.018 | -0.054 ± 0.047 | -0.0825 ± 0.066 | -0.0405 ± 0.13 | 0.0165 ± 0.021 | 0.034 ± 0.021 |
